# Article doi:10.1101/2024.10.27.620478
# Results are given in words; binding and its absence hold for the method and conditions named. In cells and extracts the contact can be indirect. Some results given as binding are weak or reduced against the parent protein; the word gives no strength.
# T1: BAG-1 (human (endogenous in SH-SY5Y)) (UniProt Q99933)
# T1 sequence: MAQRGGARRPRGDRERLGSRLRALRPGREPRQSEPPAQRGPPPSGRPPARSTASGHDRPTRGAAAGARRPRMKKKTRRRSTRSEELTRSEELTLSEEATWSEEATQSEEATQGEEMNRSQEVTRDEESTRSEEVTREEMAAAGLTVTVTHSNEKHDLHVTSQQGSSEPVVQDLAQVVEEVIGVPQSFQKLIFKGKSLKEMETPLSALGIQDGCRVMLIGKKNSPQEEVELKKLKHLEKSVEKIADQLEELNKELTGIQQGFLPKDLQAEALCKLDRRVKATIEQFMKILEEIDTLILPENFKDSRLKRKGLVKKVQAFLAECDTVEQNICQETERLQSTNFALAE
# Molecular target: T1, BAG-1 (human (endogenous in SH-SY5Y))
# Assay: co-IP
binder,measurement,value
"EVA1-C (protein, UniProt P58658 49-441) LTDFSGYLTKLLQNHTTYACDGDYLNLQCPRHSTISVQSAFYGQDYQMCSSQKPASQREDSLTCVAATTFQKVLDECQNQRACHLLVNSRVFGPDLCPGSSKYLLVSFKCQPNELKNKTVCEDQELKLHCHESKFLNIYSATYGRRTQERDICSSKAERLPPFDCLSYSALQVLSRRCYGKQRCKIIVNNHHFGSPCLPGVKKYLTVTYACVPKNILTAIDPAIANLKPSLKQKDGEYGINFDPSGSKVLRKDGILVSNSLAAFAYIRAHPERAALLFVSSVCIGLALTLCALVIRESCAKDFRDLQLGREQLVPGSDKVEEDSEDEEEEEDPSESDFPGELSGFCRTSYPIYSSIEAAELAERIERREQIIQEIWMNSGLDTSLPRNMGQFY",binding,binds
